{"source": "patent US20080070256A1", "about": "“Non-Human Animal Models for B-cell Non-Hodgkin's Lymphoma and Uses Thereof” (NATIONAL JEWISH MEDICAL AND RESEARCH CENTER, priority 2006, published 2008)", "assay_type_in_all_cases": "in vivo, mouse", "key": {"[1]": {"system": "MMTV-rtTA/TRE-MYC/BCR^HEL B-cell lymphomas", "assay": "Doxycycline diet in mice with MMTV-rtTA/TRE-MYC/BCR^HEL-driven lymphomas (MYC switched off)", "settings": "MYC overexpression extinguished"}, "[2]": {"system": "MMTV-rtTA/TRE-MYC/BCR^HEL/sHEL tumors (DLBCL)", "settings": "DLBCL model, tumor bearing mice switched to doxycycline diet", "experimental": "(§1) Tumor cells were harvested from lymph nodes and spleens and transplanted. The recipient mice were held until tumors became clinically apparent. Tumor recipient (clear bars) and wild type (filled bars) mice then received daily injections of the indicated drugs for 7 days of either cyclosporine A (csa), FK506, rapamycin (rap) or cyclophosphamide (cyph). The mice were euthanized 24 hours after the last injection of drug, and lymph nodes were harvested for analysis of either total number of cells or surface markers of donor cells (not shown).\n(§2) Tumor cells were harvested from lymph nodes and spleens and transplanted as described. The recipient mice were held until tumors became clinically apparent. The mice were then either maintained on a normal mouse diet, or switched on to a diet containing doxycycline, that shut off MYC overexpression. The mice were euthanized at the indicated times, and the lymph nodes were collected, used to generate single cell suspensions, cell counts and flow cytometric analysis.\n(§3) Groups of 6 mice were utilized for each of the experimental protocols. Four mice bearing transplanted tumors, and two age and sex matched wild type mice were treated with the same drug and equal frequency. […] The cells were counted as described above. […]"}, "[3]": {"system": "MMTV-rtTA/TRE-MYC/BCR^HEL/sHEL tumors (FLL)", "settings": "FLL model, tumor bearing mice switched to doxycycline diet", "experimental": "as §1, §2, §3"}}, "note": "For at least one compound, name, drawing or mass did not settle the structure.", "data": [{"smiles": "C[C@H]1c2cccc(O)c2C(=O)C2=C(O)[C@]3(O)C(=O)C(C(N)=O)=C(O)[C@@H](N(C)C)[C@@H]3[C@@H](O)[C@@H]21", "note": "[doxycycline]", "values": [{"measurement": "tumor course after switch to doxycycline-containing diet", "setting": "[1]", "value": "regress"}, {"measurement": "remission on doxycycline containing diet (TRE-MYC transgene suppressed)", "setting": "[2]", "value": "went into remission"}, {"measurement": "remission on doxycycline containing diet (TRE-MYC transgene suppressed)", "setting": "[3]", "value": "went into remission"}]}]}
